Measured data: PubChem BioAssay AID686937 (Drosophila RNAi Screening Center, 2013)
In all, the deposit lists about 23,000 reagents; this is an unselected part of those with a known target gene and a result. 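Reduced-secretion tags in replicate 1 do not always agree with the z-scores; no criterion for assigning the tags was given.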 Names joined by + are all predicted targets of the reagent. Further read-outs or replicates are left out here. No sequences are given here. The record does not give: the amount of reagent.

- Purpose: 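Genes whose loss weakens secretory pathway function in fly cells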 (primary screen)
- Cell system: Drosophila S2 cells expressing secreted horseradish peroxidase
- Reagent: long dsRNA against Drosophila genes
- Timing: about 5.5 days (5 days dsRNA, then 12 h reporter induction)
- Challenge: reporter expression induced after 5 days of dsRNA, read 12 h later; inducer not stated
- Read-out: 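Chemiluminescent measurement of peroxidase in the medium 12 h after reporter induction, following 5 days of dsRNA, given as a z-score per plate; higher means more secretion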
- Scale: z-score: higher = more reporter secreted into medium

| gene knocked down | dsRNA | z-score, replicate 1 | z-score, replicate 2 |
| --- | --- | --- | --- |
| CG13405 | DRSC08310 | 0.21 | 0.18 |
| Ncc69 | DRSC10412 | 0.08 | 0.3 |
| Ncc69 | DRSC10413 | 0.27 | -0.82 |
| RpS11 | DRSC07289 | 0.45 | 0.35 |
| RpS11 | DRSC22700 | -2.75 | -1.14 |
| wgn | DRSC19998 | -0.13 | 0.4 |
| tld | DRSC17084 | 0.69 | 0.52 |
| Rab21 | DRSC20968 | -0.46 | -0.6 |
| CG1575 | DRSC18069 | 0.52 | 0.14 |
| CG7557 | DRSC10878 | 0.21 | 0.33 |
| PIG-L | DRSC15577 | 0.31 | 0.19 |
| mag | DRSC11787 | 0.53 | 0.4 |
| TwdlF | DRSC12225 | 0.31 | 0.22 |
| Nlg2 | DRSC00957 | -0.81 | -0.01 |
| Nlg2 | DRSC03578 | 0.46 | 0.22 |
| CG9799 | DRSC16567 | 0.03 | -0.21 |
| CG11267 | DRSC09833 | -0.12 | 0.11 |
| RpS12 | DRSC11270 | -3.91 | -3.81 |
| CG17816 | DRSC15277 | 0.66 | 0.33 |
| CG3517 | DRSC15492 | 0.5 | 0.33 |
| Or13a | DRSC20265 | 0.15 | 0.1 |
| Ski6 | DRSC02491 | -0.38 | 0.22 |
| Ubc2 | DRSC01137 | 0.48 | 0.07 |
| Ubc2 | DRSC03468 | -0.18 | 0.08 |
| CG33689 | DRSC09424 | 0.05 | 0.29 |
| EDTP | DRSC07409 | 0.32 | 0.2 |
| Bet5 | DRSC14600 | -1.62 | -0.37 |
| CG31176 | DRSC15038 | 0.06 | -0.1 |
| CG31176 | DRSC16021 | 0.3 | 0.34 |
| lgs | DRSC17152 | 0.41 | 0.29 |
| Nrg | DRSC17573 | 0.46 | 0.05 |
| Nrg | DRSC18688 | 0.38 | 0.42 |
| Bka | DRSC02757 | 0.19 | 0.19 |
| CG9109 | DRSC03139 | 0.2 | 0.02 |

The list goes on, starting with the last 7 of the part before.
| gene knocked down | dsRNA | z-score, replicate 1 | z-score, replicate 2 |
| --- | --- | --- | --- |
| CG31176 | DRSC15038 | 0.06 | -0.1 |
| CG31176 | DRSC16021 | 0.3 | 0.34 |
| lgs | DRSC17152 | 0.41 | 0.29 |
| Nrg | DRSC17573 | 0.46 | 0.05 |
| Nrg | DRSC18688 | 0.38 | 0.42 |
| Bka | DRSC02757 | 0.19 | 0.19 |
| CG9109 | DRSC03139 | 0.2 | 0.02 |
| disco | DRSC20323 | -0.15 | 0.52 |
| Cpr65Eb | DRSC11026 | 0.33 | 0.36 |
| CG7458 | DRSC11829 | -2.97 | 0.35 |
| CG7458 | DRSC21340 | -0.02 | -0.27 |
| Ttc1 | DRSC15016 | -0.22 | -0.22 |
| Ttc1 | DRSC22469 | -0.25 | -0.38 |
| CG4646 | DRSC06876 | -0.14 | -0.07 |
| Sgs1 | DRSC00787 | 0.37 | 0.38 |
| Sgs1 | DRSC00848 | -0.99 | -0.15 |
| Tsp42A | DRSC04862 | 0.37 | 0.37 |
| CG32069 + Blos2 | DRSC10621 | -0.99 | -1.25 |
| CG13244 | DRSC21642 | -3.55 | -0.27 |
| Ir20a | DRSC20506 | 0.5 | 0.12 |
| Not11 | DRSC04204 | 0.28 | -0.35 |
| His2B:CG33870 + His2B:CG33868 + His2B:CG33882 + 21 more | DRSC03757 | -3.52 | -3.27 |
| CG33969 | DRSC11777 | 0.22 | 0.28 |
| CG16753 | DRSC08489 | 0.26 | 0.35 |
| CR6900 | DRSC20018 | 0.31 | 0.45 |
| Ccp84Ag | DRSC12592 | 0.47 | 0.53 |
| Ccp84Ag | DRSC22085 | 0.07 | 0.75 |
| CG8036 | DRSC16366 | -0.72 | -1.01 |
| prod | DRSC07667 | -1.95 | -2.95 |
